Data taken from PubChem BioAssay AID1159506, deposited by NCATS (2015).

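Luminescence from an EWS-FLI1 target-promoter (NR0B1) reporter, set against a CMV-promoter reporter, two days after silencing single genes in TC32 Ewing sarcoma cells.
Each siRNA was applied at 20 nM.
A z-score of the log NR0B1-over-CMV signal, less the median of siRNAs with the same seed; more negative means a stronger specific loss of the NR0B1 reporter.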

The strongest results of the screen are mostly left out here.
Sequences are the guide (antisense) strand, without overhang.

siRNA	target gene	seed-corrected z-score
AACCAUUCACGACUCCUCC	PSMG3	0.9761
UCGGGUCUCAAACAGAUGC	XIRP1	-0.6702
UAAGCUGCUCGCUCGUUGG	BARX1	-1.103
UCUGGUACUAAAGAUGUCC	AGFG2	2.056
AAGGGUACCACUUCCACCU	PGF	-0.1936
AGAGUGCAUAGAACUCUUC	MED29	0.2335
UUUCGAUAAAGCGCAGGGC	STIM2	0.9354
UUGUUGAGCAGGGCUGUGC	ZFP36L2	2.09
UGGGAUACCAAUAAGCACA	OR51E2	-0.2303
UACGCAGACAUGAAGCGGU	SF3A2	-0.9441
ACUGUUAUUGAAGUUGCCG	ADGRL1	0.3185
UAGGUACUGAUUGAACUCC	TTL	0.4646
UAUAGAACCAAACUCGAAC	POU5F2	0.4155
UUCAUCACGAUGUGAAUUC	LSM5	0.02608
UCCCUUAUCACAUUCCUCG	ZNF112	-0.5987
AAAGGUUCAGGUCCAUUCC	SUSD1	-0.03322
UCAGGUUCUCGCUGCUUGU	HGH1	-0.2981
UCCGAGUCUUCGUCGUUGC	RASSF10	0.06686
UUGAUCAUCAAUUUUACGC	PNISR	0.06136
UUUCGUUCAAUUAGCUGCC	PIBF1	0.2473
UUCUAAUAAAUCUAUUCCG	CORO2B	0.8841
AGUGGAACCACAAAGGAGG	KLHDC9	-1.075
AAAGAUCCAGUAGUCCAUG	NPY4R	-0.02438
AAAGGAAAUAGAUAUGUCC	DEFA4	0.528
UGUGAAGUCGUAUAGCUGC	WDR90	0.199
UGCGGAUCCAGAUUCUCCU	TGM6	0.9128
UCCUGGUACAGGUUUUGCC	C1orf167	-0.1722
UUUCGAAACAGCCCUAAGC	ALG13	-0.01176
AAAGCGGCACUUUCCCUCC	ZGPAT	1.169
UUCACGAUGUCUGUCAGCC	ZCCHC7	-0.1769
AAAGGUUUUGGGUGAAAUG	ZNF718	-0.102
UGUCAGAACAGGAUAACUU	OR1A1	-0.2067
AACUUUUCCGCCUCCUUGU	CARD19	-1.023
AAUAUACCCAGUCGUGUGG	CERS6	2.568
UUACAAGAAGCGGUCAUCA	C7orf43	0.0515
AAGGUGAUCAUGCCGAUGA	SLC35C1	-0.2689
UCACGAUCAUCUGUUAGGG	SETD2	-0.3215
UUCUGACCUAUGAUAACUC	HSD17B4	0.08501
ACUGUAGUUACGCAUGAUC	JUP	1.049
UUUAUCCAAGGCAUCAUCG	CAST	1.21
UUCCGGCUAUCGUAACUCC	DIAPH1	-1.173
UUGCGUUUCCGAGUUGACG	ZNF385D	0.08053
AAACAUGUUCUCAUAGUCG	LRRC25	0.7566
AAAGCGACCUCCUUCAGGG	CTU2	-0.01226
AAGGCUUCAUCCAAUAACU	SDS	-0.6602
AUCUGUUUCCACAAGGUCC	EPB41L4B	-0.4674
UAGACAACCAGGAAGACGA	NSG1	0.4253
UCCCGGAAAUCAAUUAGGU	GGT7	-0.7506
UCAUGACUAACUUAUCGGG	COG3	-0.724
UUCCUUGUUAUACUGGUCG	CST11	-0.4379
UAGCCGUCCAGUACAACUG	PALLD	-0.1885
UUCCAUCCCAGAAAUCGCU	LOC649294	0.2159
AAACUUGGAACUGCAGCCG	CDCP1	0.5035
UUUGGUAUAAAGGUCCCUG	FAM189B	0.4504
AAAGACCAAACUAAAACCU	FRMD8	0.7673
UUUCGAGCGACAAUCACAC	SLC24A1	-1.667
UUUGGAUUGCUCGACGUGC	MYOD1	-0.2975
UCAGGUUGUAGUGCAAGAA	PIGZ	0.3875
UAUUUCGGCCUCCAAACCC	CCDC88B	-0.02861
UUUCCUCCAAAAUCGCUUG	LCE3D	0.1347

Once more, the final 3:

siRNA,target gene,seed-corrected z-score
UCAGGUUGUAGUGCAAGAA,PIGZ,0.3875
UAUUUCGGCCUCCAAACCC,CCDC88B,-0.02861
UUUCCUCCAAAAUCGCUUG,LCE3D,0.1347